In the supplement of paper PMC10849652 one finds log2 fold change data, which are given here for 34 targets.

The chains behind the UniProt entries cited, without tags or fusion partners. Where a name states a change or a piece, a line headed by the entry shows the natural chain unless it says otherwise.
UniProt P49736, whole entry, looked up: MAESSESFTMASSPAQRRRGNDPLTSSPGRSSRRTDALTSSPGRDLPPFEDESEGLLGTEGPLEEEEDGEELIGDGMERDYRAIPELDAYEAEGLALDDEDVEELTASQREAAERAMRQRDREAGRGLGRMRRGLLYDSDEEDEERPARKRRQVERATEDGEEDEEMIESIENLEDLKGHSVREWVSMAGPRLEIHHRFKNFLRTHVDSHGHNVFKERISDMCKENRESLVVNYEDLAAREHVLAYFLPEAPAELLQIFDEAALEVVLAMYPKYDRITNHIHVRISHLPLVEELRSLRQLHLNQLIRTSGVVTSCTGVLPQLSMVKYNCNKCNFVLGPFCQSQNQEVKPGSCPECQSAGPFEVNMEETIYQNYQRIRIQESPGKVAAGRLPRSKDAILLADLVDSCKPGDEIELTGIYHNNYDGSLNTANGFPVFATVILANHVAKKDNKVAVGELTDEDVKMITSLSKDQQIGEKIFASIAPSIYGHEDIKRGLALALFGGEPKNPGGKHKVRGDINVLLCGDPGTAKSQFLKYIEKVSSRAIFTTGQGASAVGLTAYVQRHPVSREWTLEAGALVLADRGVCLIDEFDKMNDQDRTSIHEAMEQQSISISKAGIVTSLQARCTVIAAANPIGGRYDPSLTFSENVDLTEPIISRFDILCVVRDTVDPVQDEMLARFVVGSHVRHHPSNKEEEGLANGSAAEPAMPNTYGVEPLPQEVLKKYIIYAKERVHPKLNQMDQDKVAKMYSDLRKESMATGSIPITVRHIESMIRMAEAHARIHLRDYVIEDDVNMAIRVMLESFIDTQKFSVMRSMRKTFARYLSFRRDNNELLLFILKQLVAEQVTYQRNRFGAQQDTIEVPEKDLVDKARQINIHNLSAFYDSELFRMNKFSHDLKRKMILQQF
UniProt Q9ULK4: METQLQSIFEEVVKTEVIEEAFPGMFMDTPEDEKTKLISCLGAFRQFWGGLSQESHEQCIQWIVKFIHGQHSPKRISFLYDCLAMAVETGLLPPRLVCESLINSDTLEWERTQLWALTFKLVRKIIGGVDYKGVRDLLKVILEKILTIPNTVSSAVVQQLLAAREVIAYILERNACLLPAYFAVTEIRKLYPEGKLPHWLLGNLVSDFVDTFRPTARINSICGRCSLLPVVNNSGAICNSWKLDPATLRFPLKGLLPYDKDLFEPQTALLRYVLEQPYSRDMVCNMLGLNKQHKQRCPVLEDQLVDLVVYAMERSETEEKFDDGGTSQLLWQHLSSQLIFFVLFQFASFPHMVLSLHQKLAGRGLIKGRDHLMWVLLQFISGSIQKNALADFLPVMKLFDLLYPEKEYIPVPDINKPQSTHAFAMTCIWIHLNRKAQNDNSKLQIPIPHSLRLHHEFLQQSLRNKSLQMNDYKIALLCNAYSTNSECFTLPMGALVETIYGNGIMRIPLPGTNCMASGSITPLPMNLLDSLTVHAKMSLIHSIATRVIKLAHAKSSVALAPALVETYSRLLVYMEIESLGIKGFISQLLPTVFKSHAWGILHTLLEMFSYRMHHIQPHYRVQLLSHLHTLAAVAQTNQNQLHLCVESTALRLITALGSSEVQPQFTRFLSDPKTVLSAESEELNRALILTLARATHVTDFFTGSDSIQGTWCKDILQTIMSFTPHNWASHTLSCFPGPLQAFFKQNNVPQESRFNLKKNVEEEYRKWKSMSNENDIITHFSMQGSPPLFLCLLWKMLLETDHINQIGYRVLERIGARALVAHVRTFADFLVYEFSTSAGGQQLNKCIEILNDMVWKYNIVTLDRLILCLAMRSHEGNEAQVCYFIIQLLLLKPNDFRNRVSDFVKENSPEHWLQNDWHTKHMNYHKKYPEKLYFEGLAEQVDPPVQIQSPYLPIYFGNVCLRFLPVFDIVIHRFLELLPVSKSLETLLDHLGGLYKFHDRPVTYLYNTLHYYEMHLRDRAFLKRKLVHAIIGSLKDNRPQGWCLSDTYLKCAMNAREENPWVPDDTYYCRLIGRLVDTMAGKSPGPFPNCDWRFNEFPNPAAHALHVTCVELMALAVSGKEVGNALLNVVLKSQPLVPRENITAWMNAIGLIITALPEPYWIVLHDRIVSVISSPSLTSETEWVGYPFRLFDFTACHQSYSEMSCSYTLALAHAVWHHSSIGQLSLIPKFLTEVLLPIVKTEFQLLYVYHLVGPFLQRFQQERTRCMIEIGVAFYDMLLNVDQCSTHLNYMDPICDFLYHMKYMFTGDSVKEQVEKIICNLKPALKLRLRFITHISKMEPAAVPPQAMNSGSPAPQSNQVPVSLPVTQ
UniProt Q12866: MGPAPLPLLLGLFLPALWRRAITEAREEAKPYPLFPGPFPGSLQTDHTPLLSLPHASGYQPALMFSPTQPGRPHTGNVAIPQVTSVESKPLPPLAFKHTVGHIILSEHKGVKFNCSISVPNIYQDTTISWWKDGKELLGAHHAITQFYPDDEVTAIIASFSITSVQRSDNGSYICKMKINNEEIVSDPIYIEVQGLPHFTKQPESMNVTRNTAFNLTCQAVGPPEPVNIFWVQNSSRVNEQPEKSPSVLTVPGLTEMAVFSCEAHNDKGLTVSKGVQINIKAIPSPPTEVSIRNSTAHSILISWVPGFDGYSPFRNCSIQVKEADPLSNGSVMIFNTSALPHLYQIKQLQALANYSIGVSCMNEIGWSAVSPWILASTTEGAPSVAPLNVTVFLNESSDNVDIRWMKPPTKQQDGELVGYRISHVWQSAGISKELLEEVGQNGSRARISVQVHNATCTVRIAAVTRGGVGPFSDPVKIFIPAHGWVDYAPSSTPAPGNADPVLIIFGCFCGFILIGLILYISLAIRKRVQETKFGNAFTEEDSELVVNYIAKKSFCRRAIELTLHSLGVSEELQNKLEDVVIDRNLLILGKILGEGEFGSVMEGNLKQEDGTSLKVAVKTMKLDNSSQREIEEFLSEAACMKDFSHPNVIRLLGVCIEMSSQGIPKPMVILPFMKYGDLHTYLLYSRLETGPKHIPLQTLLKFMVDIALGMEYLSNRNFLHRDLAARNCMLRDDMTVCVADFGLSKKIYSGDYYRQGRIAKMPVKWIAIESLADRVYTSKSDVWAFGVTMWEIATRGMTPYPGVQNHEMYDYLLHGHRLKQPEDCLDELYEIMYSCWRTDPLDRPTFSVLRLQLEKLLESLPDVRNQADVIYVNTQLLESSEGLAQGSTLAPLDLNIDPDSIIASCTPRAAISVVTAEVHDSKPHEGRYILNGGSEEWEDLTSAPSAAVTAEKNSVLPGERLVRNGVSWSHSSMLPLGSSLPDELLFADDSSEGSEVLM
UniProt P25205: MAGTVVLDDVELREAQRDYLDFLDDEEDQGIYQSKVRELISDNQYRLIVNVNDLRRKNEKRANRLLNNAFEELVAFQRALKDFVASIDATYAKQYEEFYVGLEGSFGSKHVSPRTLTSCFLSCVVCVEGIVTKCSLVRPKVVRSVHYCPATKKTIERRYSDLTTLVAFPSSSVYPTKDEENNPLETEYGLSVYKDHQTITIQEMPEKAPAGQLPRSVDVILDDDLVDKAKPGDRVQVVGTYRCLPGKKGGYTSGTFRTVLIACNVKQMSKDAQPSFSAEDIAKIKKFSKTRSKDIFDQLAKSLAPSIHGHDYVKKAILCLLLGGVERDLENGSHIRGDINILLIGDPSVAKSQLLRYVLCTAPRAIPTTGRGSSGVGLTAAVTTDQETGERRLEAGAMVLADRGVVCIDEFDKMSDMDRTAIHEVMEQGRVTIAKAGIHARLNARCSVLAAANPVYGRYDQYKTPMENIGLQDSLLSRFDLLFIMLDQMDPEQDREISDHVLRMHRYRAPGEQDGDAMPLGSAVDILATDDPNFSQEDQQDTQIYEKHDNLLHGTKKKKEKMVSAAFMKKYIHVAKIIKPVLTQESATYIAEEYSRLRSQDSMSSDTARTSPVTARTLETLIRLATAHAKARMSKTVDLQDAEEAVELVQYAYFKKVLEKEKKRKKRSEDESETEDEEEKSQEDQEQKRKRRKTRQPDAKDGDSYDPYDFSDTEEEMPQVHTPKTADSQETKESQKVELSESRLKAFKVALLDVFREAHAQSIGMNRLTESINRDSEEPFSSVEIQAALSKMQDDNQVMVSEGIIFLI
UniProt Q9BUE0: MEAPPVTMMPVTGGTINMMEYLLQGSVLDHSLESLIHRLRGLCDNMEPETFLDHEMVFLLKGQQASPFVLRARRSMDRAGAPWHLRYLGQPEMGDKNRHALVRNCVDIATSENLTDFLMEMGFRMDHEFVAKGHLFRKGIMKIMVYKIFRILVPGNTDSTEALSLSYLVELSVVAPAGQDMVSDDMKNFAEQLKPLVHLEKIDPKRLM
UniProt Q96RQ3: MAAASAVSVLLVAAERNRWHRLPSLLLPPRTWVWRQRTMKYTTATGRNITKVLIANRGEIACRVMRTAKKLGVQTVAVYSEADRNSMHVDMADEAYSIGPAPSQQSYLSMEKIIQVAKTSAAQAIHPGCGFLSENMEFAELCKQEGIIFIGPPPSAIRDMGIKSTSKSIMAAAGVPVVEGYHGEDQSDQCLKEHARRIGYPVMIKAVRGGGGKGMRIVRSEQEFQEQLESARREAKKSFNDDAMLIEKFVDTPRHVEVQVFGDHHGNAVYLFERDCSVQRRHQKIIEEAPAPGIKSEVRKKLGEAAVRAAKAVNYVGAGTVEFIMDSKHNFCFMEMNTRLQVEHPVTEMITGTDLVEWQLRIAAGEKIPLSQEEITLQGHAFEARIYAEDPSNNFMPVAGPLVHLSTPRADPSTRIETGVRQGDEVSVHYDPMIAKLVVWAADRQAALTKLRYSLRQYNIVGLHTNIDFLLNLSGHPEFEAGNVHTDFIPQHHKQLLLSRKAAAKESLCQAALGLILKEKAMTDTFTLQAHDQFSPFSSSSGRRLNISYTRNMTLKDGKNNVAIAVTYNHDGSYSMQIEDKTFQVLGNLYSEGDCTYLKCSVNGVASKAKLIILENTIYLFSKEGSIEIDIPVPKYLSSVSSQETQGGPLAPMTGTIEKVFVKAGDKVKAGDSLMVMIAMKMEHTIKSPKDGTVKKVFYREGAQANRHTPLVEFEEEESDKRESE
UniProt P50579: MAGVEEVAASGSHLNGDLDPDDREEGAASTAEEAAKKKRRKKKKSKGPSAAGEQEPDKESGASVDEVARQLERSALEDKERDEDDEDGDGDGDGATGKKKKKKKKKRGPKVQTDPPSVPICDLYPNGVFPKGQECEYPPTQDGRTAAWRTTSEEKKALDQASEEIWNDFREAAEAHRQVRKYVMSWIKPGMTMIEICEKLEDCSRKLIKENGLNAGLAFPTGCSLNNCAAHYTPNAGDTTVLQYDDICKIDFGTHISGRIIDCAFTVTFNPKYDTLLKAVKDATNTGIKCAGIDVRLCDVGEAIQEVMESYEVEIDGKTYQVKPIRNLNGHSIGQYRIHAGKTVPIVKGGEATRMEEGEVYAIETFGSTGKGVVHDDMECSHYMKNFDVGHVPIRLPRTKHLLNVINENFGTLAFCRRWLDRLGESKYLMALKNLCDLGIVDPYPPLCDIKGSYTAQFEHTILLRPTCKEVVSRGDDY
UniProt O75448: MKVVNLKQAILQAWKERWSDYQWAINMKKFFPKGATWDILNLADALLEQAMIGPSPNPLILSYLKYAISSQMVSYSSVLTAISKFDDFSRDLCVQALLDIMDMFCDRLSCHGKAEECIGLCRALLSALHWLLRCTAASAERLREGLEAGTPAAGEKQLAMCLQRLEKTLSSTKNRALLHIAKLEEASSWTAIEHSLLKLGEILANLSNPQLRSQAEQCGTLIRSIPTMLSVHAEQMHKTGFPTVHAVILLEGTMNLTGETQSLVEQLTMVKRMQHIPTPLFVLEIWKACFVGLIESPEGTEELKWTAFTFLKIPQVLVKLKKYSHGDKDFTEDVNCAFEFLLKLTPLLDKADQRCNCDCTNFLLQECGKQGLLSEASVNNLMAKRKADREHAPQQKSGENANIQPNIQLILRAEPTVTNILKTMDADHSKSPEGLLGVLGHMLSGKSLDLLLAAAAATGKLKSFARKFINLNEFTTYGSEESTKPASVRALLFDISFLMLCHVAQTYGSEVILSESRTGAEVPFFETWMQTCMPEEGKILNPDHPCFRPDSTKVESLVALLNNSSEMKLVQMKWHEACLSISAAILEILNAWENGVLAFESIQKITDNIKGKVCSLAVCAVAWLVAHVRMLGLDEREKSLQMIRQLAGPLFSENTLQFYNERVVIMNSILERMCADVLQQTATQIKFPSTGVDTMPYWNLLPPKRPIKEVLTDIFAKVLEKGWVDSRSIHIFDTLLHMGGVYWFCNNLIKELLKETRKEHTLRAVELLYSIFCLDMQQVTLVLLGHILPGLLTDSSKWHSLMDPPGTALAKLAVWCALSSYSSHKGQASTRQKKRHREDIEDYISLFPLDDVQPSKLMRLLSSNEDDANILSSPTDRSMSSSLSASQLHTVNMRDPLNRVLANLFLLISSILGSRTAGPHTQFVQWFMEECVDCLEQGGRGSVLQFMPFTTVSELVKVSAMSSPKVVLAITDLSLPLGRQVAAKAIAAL

Some of the results follow.

Compound in the assay: Cc1cc(Nc2cc(N3CCN(C)CC3)nc(Sc3ccc(NC(=O)C4CC4)cc3)n2)n[nH]1 [tozasertib]
In words: log2 fold change, soluble protein after heating vs DMSO (PISA); higher = thermal stabilisation; K562 cells, 10 uM, 30 min; active = over 0.2 and 3.5 SD of the protein, either way, in both replicates (recomputed). A digest of the protocol: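 K562 cells at 2×10^6 cells/mL were exposed to 10 μM compound for 30 min, then aliquots were heated for 3 min across 48°C-58°C, pooled, and extracted in PBS containing 0.5% NP-40 at 4°C. The supernatant after 21,000xg for 90 min was taken as soluble protein and measured by TMTpro 16plex LC-MS/MS with channel sums equalised. Thermal stability is reported relative to control samples, with values from duplicates. Fold changes are given on a log2 scale.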
On to MIB1 (UniProt Q86YT6), for which the log2 fold change was inactive: 0.048.

As to MCM2 (UniProt P49736), the log2 fold change was inactive: 0.006.

Regarding MESD (UniProt Q14696), the log2 fold change was inactive: 0.011.

As for MCRIP1 (UniProt I3L4Q0), the log2 fold change is inactive: 0.061.

For MED23 (UniProt Q9ULK4), the log2 fold change is inactive: 0.043.

For METTL7A (UniProt Q9H8H3), the log2 fold change was inactive: -0.005.

MCM5 (UniProt P33992): the log2 fold change is inactive: 0.022.

On to METTL5 (UniProt Q9NRN9), for which the log2 fold change is inactive: -0.013.

As for MECR (UniProt Q9BV79), the log2 fold change is inactive: 0.007.

Take MBOAT1 (UniProt Q6ZNC8): the log2 fold change was inactive: 0.079.

For MEF2C isoform 5 (UniProt Q06413), the log2 fold change was inactive: -0.131.

With MAT2B (UniProt Q9NZL9), the log2 fold change was inactive: -0.002.

In the case of METTL21A (UniProt Q8WXB1), the log2 fold change was inactive: -0.087.

For MERTK (UniProt Q12866), the log2 fold change is inactive: -0.048.

As to MCM3 isoform 2 (UniProt P25205), the log2 fold change was inactive: 0.002.

With MED30 (UniProt Q96HR3), the log2 fold change was inactive: 0.02.

For METTL6 (UniProt Q8TCB7), the log2 fold change is inactive: -0.033.

For MED18 (UniProt Q9BUE0), the log2 fold change was inactive: 0.011.

Take MFAP1 (UniProt P55081): the log2 fold change was inactive: -0.023.

For the target MCCC1 (UniProt Q96RQ3), the log2 fold change was inactive: -0.051.

Consider MGAT4B isoform 3 (UniProt Q9UQ53), for which the log2 fold change is inactive: -0.054.

For the target MED14 (UniProt O60244), the log2 fold change is inactive: -0.05.

MFSD10 (UniProt Q14728): the log2 fold change is inactive: -0.002.

Take METAP1 (UniProt P53582): the log2 fold change is inactive: -0.022.

Regarding METAP2 (UniProt P50579), the log2 fold change is inactive: -0.011.

With MCRIP2 (UniProt Q9BUT9), the log2 fold change was inactive: 0.135.

For the target MBNL1 (UniProt Q9NR56), the log2 fold change is inactive: -0.081.

For MEAF6 isoform 3 (UniProt Q9HAF1), the log2 fold change was inactive: 0.028.

As for MFSD14B (UniProt Q5SR56), the log2 fold change was inactive: 0.051.

With MBD3 (UniProt O95983), the log2 fold change is inactive: 0.048.

MED15 (UniProt Q96RN5): the log2 fold change was inactive: -0.001.

Take MED24 (UniProt O75448): the log2 fold change was inactive: 0.003.

With MEF2D (UniProt Q14814), the log2 fold change was inactive: -0.002.

Take MED10 (UniProt Q9BTT4): the log2 fold change is inactive: 0.016.
